PubChem BioAssay AID504791 – Drosophila RNAi Screening Center | 2011

Test: 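Genes whose knock-down strengthens or weakens small-RNA reporter silencing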 (primary screen)
Cell system: Drosophila S2-derived reporter cells
Knock-down reagent: long dsRNA against Drosophila genes, about 150-250 ng dsRNA per well (siRNA assay); about 80-120 ng (miRNA assay)
Duration: about 5 days (siRNA assay); about 4 days (miRNA assay)
Conditions: copper sulfate induction of reporters: 25 µM (siRNA assay); 200 mM stated (miRNA assay), 1-2 days before reading
Measured: 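Dual luciferase assay: Renilla to firefly signal ratio in each well, scaled to the mean ratio of its plate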
Call rule: 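First-pass picks had plate-scaled ratios over 1.5 for the siRNA assay, over 1.6 for the miRNA assay, or under 0.6; two distinct dsRNAs had to score alike on retest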
In all, the deposit lists about 23,000 reagents; shown is an unselected part of those that have a named target and a result. In the full data, 199 (0.86%) got an active call. 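Plate-scaled ratios behind the calls are not deposited; printed light signals are raw; many rows marked increased or decreased are still called inactive.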 The numbers tell different reagents against one gene apart. A plus sign joins genes that one reagent is predicted to hit. Not stated in the record: the direction of the score.

| gene | reagent no. | miRNA reporter change | stable assay Renilla, run 1 (luminescence) | stable assay firefly, run 1 (luminescence) | outcome |
| --- | --- | --- | --- | --- | --- |
| CG31016 | 1 | – | 9009 | 4.50e5 | inactive |
| dia (diaphanous) | 1 | – | 7623 | 3.72e5 | inactive |
| ACC (Acetyl-CoA carboxylase) | 1 | – | 4480 | 2.30e5 | inactive |
| ACC (Acetyl-CoA carboxylase) | 2 | – | 5886 | 3.16e5 | inactive |
| CG15404 | 1 | – | 9619 | 5.12e5 | inactive |
| Cdc16 (Cell division cycle 16) | 1 | – | 6471 | 2.89e5 | inactive |
| CG9284 (retired record) | 1 | – | 5699 | 4.84e5 | inactive |
| CG9284 (retired record) | 2 | – | 1.88e5 | 2.68e5 | inactive |
| RhoL (Rho-like) | 1 | – | 6151 | 5.35e5 | inactive |
| CG32751 | 1 | – | 8850 | 5.23e5 | inactive |
| Chrac-16 (Chromatin accessibility complex 16kD protein) | 1 | reporter ratio lowered past the hit cutoff | 6438 | 5.98e5 | inactive |
| RecQ4 (RecQ4 helicase) | 1 | – | 6218 | 3.81e5 | inactive |
| CG13436 | 1 | – | 6562 | 4.55e5 | inactive |
| Ufd4 (Ubiquitin fusion-degradation 4-like) | 1 | – | 8640 | 3.95e5 | inactive |
| CG32280 | 1 | – | 4840 | 3.66e5 | inactive |
| Cyp4d2 (Cytochrome P450 4d2) | 1 | – | 8518 | 4.31e5 | inactive |
| Delta | 1 | – | 7776 | 4.06e5 | inactive |
| Shc (SHC-adaptor protein) | 1 | – | 5358 | 3.34e5 | inactive |
| EndoB (Endophilin B) | 1 | – | 6758 | 3.32e5 | inactive |
| ScsbetaA (Succinyl-coenzyme A synthetase beta subunit, ADP-forming) | 1 | – | 8555 | 4.39e5 | inactive |
| spoon (spoonbill) | 1 | – | 7504 | 4.45e5 | inactive |
| Or59b (Odorant receptor 59b) | 1 | – | 6883 | 4.26e5 | inactive |
| nxf2 (nuclear RNA export factor 2) | 1 | – | 10044 | 4.20e5 | inactive |
| tsu (tsunagi) | 1 | – | 9217 | 5.39e5 | inactive |
| CG14362 | 1 | – | 6447 | 3.42e5 | inactive |
| CG6293 | 1 | – | 7226 | 3.81e5 | inactive |
| CG12713 | 1 | – | 7191 | 2.74e5 | inactive |
| Lsm11 | 1 | – | 5304 | 3.93e5 | inactive |
| CG2113 | 1 | – | 6711 | 3.24e5 | inactive |
| CG32806 | 1 | – | 9070 | 3.96e5 | inactive |
| Loxl1 (Lysyl oxidase-like 1) | 1 | – | 6494 | 5.79e5 | inactive |
| Ptp61F (Protein tyrosine phosphatase 61F) | 1 | – | 8972 | 4.52e5 | inactive |
| CG3558 | 1 | – | 50947 | 1.58e5 | inactive |
| Cep135 (Centrosomal protein 135kDa) | 1 | – | 6494 | 3.90e5 | inactive |
| Cep135 (Centrosomal protein 135kDa) | 2 | – | 7772 | 3.06e5 | inactive |
| CG33255 (retired record) + hpRNA:CR32205 + hpRNA:CR32207 | 1 | – | 6115 | 3.76e5 | inactive |
| atms (antimeros) | 1 | – | 6043 | 3.47e5 | inactive |
| CG13154 | 1 | – | 8076 | 3.44e5 | inactive |
| kmg (kumgang) | 1 | – | 7042 | 3.45e5 | inactive |
| hoe2 (hoepel2) | 1 | – | 7372 | 3.32e5 | inactive |
| ppk13 (pickpocket 13) | 1 | – | 6624 | 3.64e5 | inactive |
| lola (longitudinals lacking) | 1 | – | 5571 | 2.96e5 | inactive |
| lola (longitudinals lacking) | 2 | – | 7083 | 5.67e5 | inactive |
| lola (longitudinals lacking) | 3 | – | 7522 | 5.94e5 | inactive |
| lola (longitudinals lacking) | 4 | – | 7190 | 4.13e5 | inactive |
| lola (longitudinals lacking) | 5 | – | 8002 | 5.39e5 | inactive |
| lola (longitudinals lacking) | 6 | – | 7135 | 3.71e5 | inactive |
| lola (longitudinals lacking) | 7 | – | 6311 | 3.10e5 | inactive |
| lola (longitudinals lacking) | 8 | – | 6966 | 3.39e5 | inactive |
| lola (longitudinals lacking) | 9 | – | 8834 | 4.95e5 | inactive |
| lola (longitudinals lacking) | 10 | – | 4823 | 2.48e5 | inactive |
| lola (longitudinals lacking) | 11 | – | 7039 | 3.22e5 | inactive |
| lola (longitudinals lacking) | 12 | – | 5375 | 2.49e5 | inactive |
| CG42361 | 1 | – | 6179 | 3.49e5 | inactive |
| CG12402 | 1 | – | 7868 | 4.29e5 | inactive |
| BaraC (Baramicin C) | 1 | – | 5646 | 3.57e5 | inactive |
| Or65c (Odorant receptor 65c) | 1 | – | 9871 | 6.09e5 | inactive |

7 entries from above, reduced to “stable assay Renilla, run 1 (luminescence)”:
Ptp61F (Protein tyrosine phosphatase 61F)	8972
CG3558	50947
Cep135 (Centrosomal protein 135kDa) #1	6494
Cep135 (Centrosomal protein 135kDa) #2	7772
CG33255 (retired record) + hpRNA:CR32205 + hpRNA:CR32207	6115
atms (antimeros)	6043
CG13154	8076
